Laboratory results reported in publication PMC9830510.
No constants are given. Whether binding was seen depends on the method and setting. Binding seen in cells or lysates may run through a third protein. A yes stands for co-enrichment or nearness to the bait. Other partners may have been found.

Sequences of proteins named here, by UniProt entry; tags and fusion partners are left off. Residues count along the entry.
UniProt O75636, residues 24-299: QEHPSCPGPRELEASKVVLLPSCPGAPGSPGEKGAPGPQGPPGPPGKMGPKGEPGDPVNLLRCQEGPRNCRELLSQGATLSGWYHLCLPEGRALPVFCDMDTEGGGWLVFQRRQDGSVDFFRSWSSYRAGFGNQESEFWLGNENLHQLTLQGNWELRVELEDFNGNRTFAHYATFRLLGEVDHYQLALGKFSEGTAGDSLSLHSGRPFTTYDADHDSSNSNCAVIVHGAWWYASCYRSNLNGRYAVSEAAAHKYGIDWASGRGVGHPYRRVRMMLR

Biological target: Full-length FCN3 (Ficolin-3) with a C-terminal 6x His tag (human) (UniProt O75636)
Assay: affinity purification with mass spectrometry; HCCLM3 cells transfected with His-FCN3; co-IP with His-tag antibody on magnetic beads; eluate separated on SDS-PAGE, silver staining and mass spectrometry

- binding: binds
B1: SBDS (ribosome maturation factor), endogenous (protein, UniProt Q9Y3A5 1-250)
chain: MSIFTPTNQIRLTNVAVVRMKRAGKRFEIACYKNKVVGWRSGVEKDLDEVLQTHSVFVNVSKGQVAKKEDLISAFGTDDQTEICKQILTKGEVQVSDKERHTQLEQMFRDIATIVADKCVNPETKRPYTVILIERAMKDIHYSVKTNKSTKQQALEVIKQLKEKMKIERAHMRLRFILPVNEGKKLKEKLKPLIKVIESEDYGQQLEIVCLIDPGCFREIDELIKKETKGKGSLEVLNLKDVEEGDEKFE
